According to patent US8546320B2, “Hsp9O-targeted anti-cancer chimeric peptide” (Kyoto University, priority 2008, dated 2013):
At least one peptide structure holds a part that was inferred or is arguable (an end, a ring closure or a residue). Where a SMILES comes first, the peptide text is derived from it.

Tested on: Hsp90 client proteins in T47D cells
Assay: Western blotting of Hsp90 client proteins, T47D
Assay type: cell-based, human
Details: 68 μM, 48 hours

Structure (SMILES): CC[C@H](C)[C@H](NC(=O)[C@H](CCCNC(=N)N)NC(=O)[C@H](C)NC(=O)[C@H](Cc1ccc(O)cc1)NC(=O)[C@H](C)NC(=O)[C@H](CCCCN)NC(=O)[C@H](CCCCN)NC(=O)[C@H](CCCCN)NC(=O)[C@H](Cc1c[nH]c2ccccc12)NC(=O)[C@H](CCCCN)NC(=O)[C@H](CCSC)NC(=O)[C@H](CCCNC(=N)N)NC(=O)[C@H](CCCNC(=N)N)NC(=O)[C@H](CC(N)=O)NC(=O)[C@H](CCC(N)=O)NC(=O)[C@H](Cc1ccccc1)NC(=O)[C@H](Cc1c[nH]c2ccccc12)NC(=O)[C@@H](NC(=O)[C@H](CCCCN)NC(=O)[C@@H](NC(=O)[C@H](CCC(N)=O)NC(=O)[C@@H](N)CCCNC(=N)N)[C@@H](C)CC)[C@@H](C)CC)C(=O)NCC(=O)N[C@@H](CC(N)=O)C(=O)N[C@@H](CO)C(=O)N[C@@H](Cc1ccc(O)cc1)C(=O)N[C@@H](Cc1ccccc1)C(=O)N[C@@H](CCCCN)C(=O)O [Antp-TPR] (H-RQIKIWFQNRRMKWKKKAYARIGNSYFK-OH; N-terminus and C-terminus assumed)
- level of Hsp90 client proteins (survivin, CDK4, Akt): lost
- level of Hsp90 itself: did not exert any influence
